Source: patent US20080118979A1, “Methods of regulating expression of genes or of gene products using substituted tetracycline compounds” (Paratek Pharmaceuticals, Inc., priority 2006, published 2008)
At least one structure is not confirmed: it was looked up by name or label, or the drawing left a doubt. Some entries repeat one wording, which the source may state once for all of them.

Assays:
[1] = tested on: transactivator fusion protein; settings: as demonstrated in U.S. Pat. No. 5,789,156; cited from earlier work
rtTA2-MT2 = test: rtTA-mediated gene activation, luciferase positive cell line MT2; assay type: cell-based; settings: FIG. 2A/2B
Text: FIGS. 2A-2D show a comparison of doxycycline and 9-t-butyl doxcycline in 34R and MT2 rtTA mutants. FIGS. 2A and 2B show the effect of doxycyline on 34R and MT2 mutants, respectively. FIGS. 2C and 2D show the effect of 9-t-butyl doxycycline on 34R and MT2 mutants, respectively.

For CN(C)[C@@H]1C(O)=C(C(N)=O)C(=O)[C@@]2(O)C(O)=C3C(=O)c4c(O)cccc4[C@@](C)(O)[C@H]3C[C@@H]12 [Tetracycline], the “increase in transcription of the target sequence” value (from here on “increase in transcription”) [1] is listed as “about 10 fold” and the “strength as inducing agent” value [1] is listed as “weaker inducing agents”.

In the case of CN(C)[C@@H]1C(O)=C(C(N)=O)C(=O)[C@@]2(O)C(O)=C3C(=O)c4c(O)ccc(Cl)c4[C@@](C)(O)[C@H]3C[C@@H]12 [chlorotetracycline], the “increase in transcription” value [1] is given as “about 10 fold” and the “strength as inducing agent” value [1] is given as “weaker inducing agents”.

For C[C@H]1c2cccc(O)c2C(=O)C2=C(O)[C@]3(O)C(=O)C(C(N)=O)=C(O)[C@@H](N(C)C)[C@@H]3[C@@H](O)[C@@H]21 [doxycycline], the “specificity and luciferase activity, MT2 versus 34R” value (rtTA2-MT2) is given as “greater specificity and luciferase activity with MT2” and the “strength as inducing agent” value [1] is given as “strong inducing agents”.

In the case of CN(C)[C@@H]1C(O)=C(C(N)=O)C(=O)[C@@]2(O)C(O)=C3C(=O)c4c(O)cccc4[C@@](C)(O)[C@H]3[C@H](O)[C@@H]12 [oxytetracycline], the “increase in transcription” value [1] is given as “about 10 fold” and the “strength as inducing agent” value [1] is given as “weaker inducing agents”.
